# From article PMC8041751, “Structural basis for an exceptionally strong preference for asparagine residue at the S2 subsite of Stenotrophomonas maltophilia dipeptidyl peptidase 7” (Scientific Reports, 2021)
# Tested on: wild-type SmDPP7
# Assay: Isothermal titration calorimetry of dipeptide binding
# Design: species or system Stenotrophomonas maltophilia
# Conditions: ITC, pH 7.0, 25 °C
# Procedure: Figure 6 Thermodynamic parameters of dipeptide binding of SmDPP7. The value of thermodynamic parameters is represented in Table S3. The dissociation constant (Kd) and heats of binding (ΔH) were obtained using MICROCAL PEAQ-ITC Analysis software (Malvern, UK). Gibbs free energy (ΔG) and entropy energy (ΔS) were calculated according to the equation, ΔG = − RT ln Ka = RT ln Kd (Ka = 1/ Kd, association constants). Standard deviations were obtained from three independent experiments.
# The bindings were analysed using a MICROCAL PEAQ-ITC microcalorimeter (Malvern, UK). The binding reactions were performed in 50 mM sodium phosphate pH 7.0 and 2.5% dimethyl sulfoxide at 25 °C and were stirred at 750 rpm. A single injection of 0.4 μl and 19 times injections of 2.0 μl of the dipeptide solution were injected into 350 μl of enzyme solution (wild-type SmDPP7). The wild-type SmDPP7 concentration was 25 µM and the concentration of each dipeptide solution was 250 µM in reaction buffer. Each injection was performed for 4 s with an interval of 150 s between injections. The dissociation constant (Kd) and heats of binding (ΔH) were obtained using MICROCAL PEAQ-ITC Analysis software (Malvern, UK). Gibbs free energy (ΔG) values were calculated according to ΔG = − RT ln Ka = RT ln Kd (Ka = 1/ Kd, association constants).
substance,measurement,setting,value
Tyr-Tyr,ΔH,,-12.4 ± 0.3 kcal/mol
same,-TΔS,calculated,5.32 ± 0.34 kcal/mol
same,ΔG,ΔG = RT ln Kd,-7.11 ± 0.04 kcal/mol
